# PubChem BioAssay AID1671190 (National Center for Advancing Translational Sciences (NCATS), 2021)
# The chains behind the UniProt entries cited, without tags or fusion partners. Where a name states a change or a piece, a line headed by the entry shows the natural chain unless it says otherwise.
# UniProt P18054: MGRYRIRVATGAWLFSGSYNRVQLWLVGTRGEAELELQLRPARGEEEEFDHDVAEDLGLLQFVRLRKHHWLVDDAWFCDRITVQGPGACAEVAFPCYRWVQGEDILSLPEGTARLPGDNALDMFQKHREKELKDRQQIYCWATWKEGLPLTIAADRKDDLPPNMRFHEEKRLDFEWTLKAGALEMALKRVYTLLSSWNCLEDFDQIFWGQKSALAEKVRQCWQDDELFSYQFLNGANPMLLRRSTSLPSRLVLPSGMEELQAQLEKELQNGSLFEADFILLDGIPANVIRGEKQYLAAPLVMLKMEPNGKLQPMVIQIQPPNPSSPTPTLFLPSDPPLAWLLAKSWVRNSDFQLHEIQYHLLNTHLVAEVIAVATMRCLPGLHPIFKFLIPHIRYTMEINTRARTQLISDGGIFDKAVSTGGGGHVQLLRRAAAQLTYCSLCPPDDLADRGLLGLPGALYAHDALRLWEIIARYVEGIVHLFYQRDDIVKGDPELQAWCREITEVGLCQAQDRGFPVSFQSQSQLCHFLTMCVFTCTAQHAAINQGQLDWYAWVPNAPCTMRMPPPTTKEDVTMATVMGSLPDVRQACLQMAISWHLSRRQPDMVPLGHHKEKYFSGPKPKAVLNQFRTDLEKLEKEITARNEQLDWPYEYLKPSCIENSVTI
# Out of some 580,000 compounds screened, about 6,100 (1.1%) were called active. The shares of active, inactive and inconclusive entries below differ from those in the screen. The call rests on the fitted dose curve; in most records, active means well fitted inhibition curve with a large enough effect; inconclusive means small, poorly fitted or top-dose-only effect, or another doubt; inactive means no such curve, though single readings can be large or run the other way. Where the call is inconclusive, the potency comes from a doubtful curve fit.
# Target: Polyunsaturated fatty acid lipoxygenase ALOX12 (Homo sapiens) (UniProt P18054)
# Assay: Primary qHTS assay for inhibitors of human arachidonate 12S-lipoxygenase (ALOX12): Round 2
# Conditions: purified 12hLO, xylenol orange hydroperoxide absorbance; activity change, negative = inhibition: at 108 µM (top of the series) unless noted
# Procedure, shortened: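 Purified human 12hLO (150 nM final) in 25 mM Hepes, 0.01% Triton X-100, pH 7.0 was preincubated 15 min at room temperature with compound. Then 40 uM arachidonic acid was added, 30 min. Hydroperoxide was read by Fe-XO absorbance ratio 573/405 nm.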
# On the % scale 0 is the no-effect control and ±100 the full control effect; potency means the concentration at half of the fitted maximal effect.
Compound,Potency,"activity change, negative = inhibition"
Cc1cccc(C(=O)Nc2nnc(S(=O)(=O)N3CCC(C)CC3)s2)c1,inactive,–
O=C1CCCC2=C1C(c1ccc(OCc3ccccc3)cc1)c1c([nH]n(-c3ccccc3)c1=O)N2 (configuration not stated),"inconclusive: 56.2 µM [inhibitor, partial curve, poor fit]",–
O=C(c1ccco1)N1CCC2(CC1)CN(C(c1ccccc1)c1ccccc1)C2,"inconclusive: 31.6 µM [inhibitor, single point]",–
O=C(CCC(=O)N1CC2CCCN2c2ccccc21)NCc1ccccc1F (configuration not stated),–,inconclusive: -32.2% [inhibitor]
Cc1csc(NC(=O)CSc2c3c(nc4cc(Cl)ccc24)CCCC3)n1,"inconclusive: 35.5 µM [inhibitor, partial curve, poor fit]",–
Cc1cc2ccccc2n1CC(=O)NC1CCN(C(=O)C(C)C)CC1,"inconclusive: 126 µM [inhibitor, single point]",–
Cc1cc(C)cc(-c2nc3cc(NC(=O)c4ccc5c(c4)OCO5)ccc3o2)c1,"inconclusive: 89.1 µM [inhibitor, single point]",–
O=C(NCc1ccccc1Cl)[C@H]1CCCN1C(=O)[C@H]1CCCN1C(=O)c1ccccc1,"inconclusive: 79.4 µM [inhibitor, single point]",–
Cc1cc(C)n(-c2nc3ccccc3nc2N2CCN(C(=O)c3ccccc3Br)CC2)n1,"inconclusive: 50.1 µM [inhibitor, partial curve, poor fit]",–
Cc1[nH]c2ccccc2c1C(=O)C(N)=O,inactive,–
COc1cc(OC)cc(C(=O)Nc2nc(CC(=O)NCc3ccccc3OC)cs2)c1,"inconclusive: 79.4 µM [inhibitor, partial curve, poor fit]",–
O=C(COc1cccc(Br)c1)Nc1ccc(NC(=O)C2CC2)cc1C(F)(F)F,"inconclusive: 39.8 µM [inhibitor, partial curve, poor fit]",–
CCCCCC(=O)N1C[C@H](O)[C@@H](n2cc(-c3ccc(F)cc3)nn2)C[C@@H]1c1ccccc1,inactive,–
CC12C=CC(=O)C=C1CCC1C2C(O)CC2(C)C1CCC2(O)C(=O)CO (configuration not stated),inactive,–
CC(=O)N1CCN(c2nc3cc4c(cc3nc2NS(=O)(=O)c2ccccc2)OCCO4)CC1,"inconclusive: 50.1 µM [inhibitor, partial curve, poor fit]",–
O=C1CCCN2N=C(SCC(=O)Nc3ccc([N+](=O)[O-])cc3)SC2=N1,inactive,–
O=C(OC12CC3CC(CC(C3)C1)C2)c1ccc(NCc2cc(O)ccc2O)cc1,active: 31.6 µM,–
O=C(NC(c1ccccc1)c1cc(Cl)c2cccnc2c1O)c1cccnc1 (configuration not stated),"inconclusive: 44.7 µM [inhibitor, partial curve, poor fit]",–
O=S(=O)(Nc1nnc(C(F)(F)F)s1)c1ccc(Cl)cc1,inactive,–
O=C(O)c1ccccc1C=NNc1ccccn1,"inconclusive: 3.16 µM [inhibitor, full curve, poor fit]",–
Cc1cccc(C)c1OCC(=O)Nc1cccc(NC(=O)c2ccco2)c1,"inconclusive: 126 µM [inhibitor, partial curve, poor fit]",–

Compound,Potency,"activity change, negative = inhibition"
COc1cc(CN2CCCCC2C)ccc1OC(F)F (configuration not stated),inactive,–
O=C(OCc1cccc(Br)c1)c1cccc(O)c1,"inconclusive: 63.1 µM [inhibitor, partial curve, poor fit]",–
Oc1c(Br)cc(Br)cc1/C=N/NC(=S)N[C@H]1CC2C=CC1C2 (some centres not stated),inactive,–
CC1=C(C(=O)N(C)C)CC(CC(=O)NC2CC2)C(=O)N1CCC1=CCCCC1 (configuration not stated),"inconclusive: 126 µM [inhibitor, single point]",–
COc1cc(CN2CCNC(=O)C2CC(=O)NC2CCCCC2)cc(OC)c1 (configuration not stated),"inconclusive: 0.631 µM [inhibitor, full curve, poor fit]",–
CCOc1ccc(S(=O)(=O)N2CCN(C(=O)c3cc(-c4ccccc4)nn3-c3ccccc3)CC2)cc1,"inconclusive: 79.4 µM [inhibitor, partial curve, poor fit]",–
CSC1=NCCN1C(=O)C(C)Oc1ccccc1 (configuration not stated),inactive,–
Cc1cc(OCCCN2CCN(Cc3ccccc3)CC2)ccc1[N+](=O)[O-],"inconclusive: 20 µM [inhibitor, partial curve, poor fit]",–
Cc1cc(C)cc(OCC(=O)NC(C)c2ccccc2)c1 (configuration not stated),"inconclusive: 141 µM [inhibitor, partial curve, poor fit]",–
CCC(=O)Nc1ccc(S(=O)(=O)N2CCc3ccccc3C2)cc1,"inconclusive: 112 µM [inhibitor, single point]",–
O=C(c1ccc(=O)[nH]c1)N(c1ccccc1)C(CCc1ccccc1)c1nc2ccccc2[nH]1 (configuration not stated),inactive,–
Cc1ccc(C(=O)/C=C/N2CCCCC2)cc1,"inconclusive: 56.2 µM [inhibitor, partial curve, poor fit]",–
CC(=O)c1ccc2c(c1)C1C=CCC1C(C(=O)O)N2 (configuration not stated),"inconclusive: 0.891 µM [inhibitor, full curve, poor fit]",–
Cc1ccc2c(c1)-n1c(nc3cc(F)ccc3c1=O)C(Cc1ccccc1)NC2=O (configuration not stated),"inconclusive: 3.55 µM [inhibitor, full curve, poor fit]",–
CCOC(=O)C1(Cc2ccc(OC)cc2)CCN(C(=O)c2cc(C)nn2C)CC1,inactive,–
Cc1ccc(C)c(N2CCN(CC3CC=CCC3)CC2)c1 (configuration not stated),"inconclusive: 28.2 µM [inhibitor, partial curve]",–
COc1ccccc1NC(=O)c1sc2nc(C)c(C(=O)Nc3ccc(Cl)cc3)c(-c3ccc(Br)cc3)c2c1N,"inconclusive: 100 µM [inhibitor, partial curve, poor fit]",–
CCCNC(=O)C1CCN(c2nnc(-n3cccc3CNc3ccc(OCC)cc3)s2)CC1,inactive,–
Cc1ccc(C(=O)OCC(=O)Nc2cc(Cl)cc(Cl)c2)cc1,inactive,–
O=C(CCc1c[nH]c2ccccc12)N1CCN(c2ccc(O)cc2)CC1,"inconclusive: 50.1 µM [inhibitor, partial curve, poor fit]",–
C=CCn1c(CCC(O)CCCCC)n[nH]c1=S (configuration not stated),"inconclusive: 100 µM [inhibitor, single point]",–

# Ordered by molar mass (descending): some entries from above.
Compound,Potency,"activity change, negative = inhibition"
O=C1CCCN2N=C(SCC(=O)Nc3ccc([N+](=O)[O-])cc3)SC2=N1,inactive,–
Cc1cccc(C)c1OCC(=O)Nc1cccc(NC(=O)c2ccco2)c1,"inconclusive: 126 µM [inhibitor, partial curve, poor fit]",–
O=C(O)c1ccccc1C=NNc1ccccn1,"inconclusive: 3.16 µM [inhibitor, full curve, poor fit]",–
